Results taken from publication PMC7819943, “Rice protein-binding microarrays: a tool to detect cis-acting elements near promoter regions in rice”.
The list shows a part of the results.

The chains behind the UniProt entries cited, without tags or fusion partners.
UniProt Q0JBA9, entry or part of it: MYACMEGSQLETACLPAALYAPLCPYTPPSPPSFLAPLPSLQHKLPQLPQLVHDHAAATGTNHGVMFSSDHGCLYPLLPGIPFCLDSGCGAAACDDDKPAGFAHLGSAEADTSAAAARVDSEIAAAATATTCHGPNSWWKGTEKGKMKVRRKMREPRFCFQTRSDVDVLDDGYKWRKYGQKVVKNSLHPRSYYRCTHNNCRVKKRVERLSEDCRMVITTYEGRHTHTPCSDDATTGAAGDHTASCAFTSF

The sequences below were run against OsWRKY34 (Oryza sativa, UniProt Q0JBA9 1-250) (assay: protein-binding microarray (RPBM); PBS, 2% BSA, 51.3 ng/ul salmon testes DNA, 50 uM zinc acetate, 200 nM TF, 25 C, 1 h; high values mean tight binding). Conditions: protein: recombinant; tags: N-terminal polyhistidine and DsRed monomer fusion (pET32a); label: CyDye5-dUTP incorporated in the synthesized complementary strand; 3' TTTTT single-stranded linker to array surface; dsDNA, one strand shown.
Summary of the method: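 Binding signal is defined as the fluorescence intensity of each feature in arbitrary units, read on an Axon 4000B scanner. Transcription factors with N-terminal polyhistidine and DsRed fusions came from E. coli BL21-CodonPlus and were purified on Ni–NTA. They were incubated at 200 nM for 1 h at 25 °C on a custom Agilent array that had been made double-stranded with Cy5-dUTP, with 50 µM zinc acetate present, and the array was washed.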

| Sequence | binding signal |
| --- | --- |
| TCCACCACCACCACCTCCTCTGCTCTCCACTCCTCGCATGCGGAGTCACCTAGTGCAG | 9540 fluorescence intensity (a.u.) |
| TCCTGCTGCTCTGCGCCAACGCGCTCGTCTTCTTCCCGCGCGGAGTCACCTAGTGCAG | 10500 fluorescence intensity (a.u.) |
| ATCTCCTTTCCTTTTTTTTTCTTTCAAAGGCGTAAAATTACGGAGTCACCTAGTGCAG | 13200 fluorescence intensity (a.u.) |
| CTGTCCCTGGGCCCTGTATATATCACAACTCACGAGCCATCGGAGTCACCTAGTGCAG | 8890 fluorescence intensity (a.u.) |
| TTGTGCTTTATACTTTTGGTTAACCTATTATATTCCGCTTCGGAGTCACCTAGTGCAG | 10500 fluorescence intensity (a.u.) |
| AGAAACCATTCCTGGCCACCAACCTCTCTATCCGCCAAAACGGAGTCACCTAGTGCAG | 9040 fluorescence intensity (a.u.) |
| GCCCATATGTCCGTCACGAACTCACGATCCCGTTCCGACACGGAGTCACCTAGTGCAG | 9380 fluorescence intensity (a.u.) |
| TATACCACCGTGAAGTACTACCACCGCATCTCCGGCAATGCGGAGTCACCTAGTGCAG | 8030 fluorescence intensity (a.u.) |
| CTCACCTCACTCACCTACATCGCCGGATCGATCGCACCGTCGGAGTCACCTAGTGCAG | 8990 fluorescence intensity (a.u.) |
| TACTACTATCTTCTTTCATTCAACTATCTTCTTATTTTATCGGAGTCACCTAGTGCAG | 11200 fluorescence intensity (a.u.) |
| GCTTCAAACTCGAGCTTCTACCAGTACCAGCTACCAGGTGCGGAGTCACCTAGTGCAG | 8190 fluorescence intensity (a.u.) |
| CGTATCTTGGTCGTTTTTTTGTTGCGTTGTTATCATCTTTCGGAGTCACCTAGTGCAG | 9120 fluorescence intensity (a.u.) |
| TTTGTAGCTACTAGCTCAGCGTTTGTTTTTATTCTTCTTTCGGAGTCACCTAGTGCAG | 8890 fluorescence intensity (a.u.) |
| GTGCGCGTTCTTGGTGTTATGGAGGCGGGTCTCGGCGGGGCGGAGTCACCTAGTGCAG | 17600 fluorescence intensity (a.u.) |
| GGTCATTCCTATGTCTTTTTTATTTTGTAATCATTTGTTTCGGAGTCACCTAGTGCAG | 10900 fluorescence intensity (a.u.) |
| TTCTCTCGTACGTAAGTTTCTCGAAATGCTATGCGCTTTCCGGAGTCACCTAGTGCAG | 10300 fluorescence intensity (a.u.) |
| GATTAGTAGTAGTAGTACTACTCCTCGTCGTCGTCGTCCTCGGAGTCACCTAGTGCAG | 8380 fluorescence intensity (a.u.) |
| AAATATTATATTTATAAAAACAATTAGCTACCAAGACTAACGGAGTCACCTAGTGCAG | 13000 fluorescence intensity (a.u.) |
| GGCAGAACTCCAAACTTTGGCAATTTTCCCTATTCTATTCCGGAGTCACCTAGTGCAG | 9500 fluorescence intensity (a.u.) |
| TCACCACCAGGTTGACCATTCCCACACACCAGGTTCTTGACGGAGTCACCTAGTGCAG | 8900 fluorescence intensity (a.u.) |
| ATCCCGCGTCGACGTAGAAAATATATTTGTTGATTTCTCTCGGAGTCACCTAGTGCAG | 8810 fluorescence intensity (a.u.) |

| Sequence | binding signal |
| --- | --- |
| ACGGTACTACACATCTAATACTGGATTGACTTTTTATTCACGGAGTCACCTAGTGCAG | 9620 fluorescence intensity (a.u.) |
| TCATGATTAGTACATTTTTCTTGCCACAACTTGTCATTCACGGAGTCACCTAGTGCAG | 8500 fluorescence intensity (a.u.) |
| GGCCGACCCCTTTGCCTCCTTAGGCCTTCTGCCCTAGTTCCGGAGTCACCTAGTGCAG | 9950 fluorescence intensity (a.u.) |
| AAGCCTCATTTGACTTTTATCTTTGCACATTTTAATTGTTCGGAGTCACCTAGTGCAG | 10400 fluorescence intensity (a.u.) |
| TCACCAATTGGTTTATGCTCACTCCACCACTGTTAATTATCGGAGTCACCTAGTGCAG | 9080 fluorescence intensity (a.u.) |
| TGTTTTTCCTGTGTTTTGCAATCCTCTGGTTTACAATTGTCGGAGTCACCTAGTGCAG | 13500 fluorescence intensity (a.u.) |
| TGCGCGTTCTACTCTGGTCTCCGGTGGCCTCTTGGCCGGACGGAGTCACCTAGTGCAG | 8210 fluorescence intensity (a.u.) |
| GGTTTCCATGTCCAACGTTTGATCATCCATCTTATATGAACGGAGTCACCTAGTGCAG | 11100 fluorescence intensity (a.u.) |
| GGGTCTAACTCTAAGAGTATTGGGTACCCCTTATCGTTAACGGAGTCACCTAGTGCAG | 8360 fluorescence intensity (a.u.) |
| TGTATTTGAGCTGGCAAGTTTGCCCATGGGTTGTTGAAATCGGAGTCACCTAGTGCAG | 8800 fluorescence intensity (a.u.) |
| GTTTTACTAGTGAATTTTCTTTTCTTTGCTTCGTTTAATGCGGAGTCACCTAGTGCAG | 8930 fluorescence intensity (a.u.) |
| CATCATCGTGCACCGCGCCGCCCTCTTCGATCGCCCAGACCGGAGTCACCTAGTGCAG | 10900 fluorescence intensity (a.u.) |
| ACAGCAATCCCATCCTATCTCCACCGTGATTTTCGCTCCCCGGAGTCACCTAGTGCAG | 8670 fluorescence intensity (a.u.) |
| GCGCGGTGCTTTCTTGCTTATTTTTATACTAGTACTACTACGGAGTCACCTAGTGCAG | 9710 fluorescence intensity (a.u.) |
| TGCCACATCCTCGTTTCGTCTCATAGGAATTTCTATGCTACGGAGTCACCTAGTGCAG | 8100 fluorescence intensity (a.u.) |
| AATATTCGCAAAATAACCTCTTATTTGGTTTCTATTTTATCGGAGTCACCTAGTGCAG | 8480 fluorescence intensity (a.u.) |
| CCGTTTCCCGGGCTTTTTTTCCATTTCCCGTCGTCTCCACCGGAGTCACCTAGTGCAG | 9840 fluorescence intensity (a.u.) |
| GCACAGAGCATGCAGCATCTGACGCGCCATCCCAACCATGCGGAGTCACCTAGTGCAG | 8310 fluorescence intensity (a.u.) |
| CGACGAGCGAGAGGTAGGTGAGAGAGAGACGGGCGGCGAACGGAGTCACCTAGTGCAG | 65100 fluorescence intensity (a.u.) |
| CGCAACCCTTTCTTCCTCCTCTGTCGCTCTCTCTCTCTCTCGGAGTCACCTAGTGCAG | 9100 fluorescence intensity (a.u.) |
| ATGTTATGAATTGATTGGGTTAGGGAGTTTTCTTCTGGTCCGGAGTCACCTAGTGCAG | 9450 fluorescence intensity (a.u.) |

Look-ups from the results shown:
Entry of CATCATCGTGCACCGCGCCGCCCTCTTCGATCGCCCAGACCGGAGTCACCTAGTGCAG under binding signal: 10900 fluorescence intensity (a.u.)
Entry of TGCGCGTTCTACTCTGGTCTCCGGTGGCCTCTTGGCCGGACGGAGTCACCTAGTGCAG under binding signal: 8210 fluorescence intensity (a.u.)
